Consider one molecule from US20240209064A1.

Amino acid sequences for entries named in this document (tags omitted). Residues count along the entry.
UniProt P35968, residues 20-764: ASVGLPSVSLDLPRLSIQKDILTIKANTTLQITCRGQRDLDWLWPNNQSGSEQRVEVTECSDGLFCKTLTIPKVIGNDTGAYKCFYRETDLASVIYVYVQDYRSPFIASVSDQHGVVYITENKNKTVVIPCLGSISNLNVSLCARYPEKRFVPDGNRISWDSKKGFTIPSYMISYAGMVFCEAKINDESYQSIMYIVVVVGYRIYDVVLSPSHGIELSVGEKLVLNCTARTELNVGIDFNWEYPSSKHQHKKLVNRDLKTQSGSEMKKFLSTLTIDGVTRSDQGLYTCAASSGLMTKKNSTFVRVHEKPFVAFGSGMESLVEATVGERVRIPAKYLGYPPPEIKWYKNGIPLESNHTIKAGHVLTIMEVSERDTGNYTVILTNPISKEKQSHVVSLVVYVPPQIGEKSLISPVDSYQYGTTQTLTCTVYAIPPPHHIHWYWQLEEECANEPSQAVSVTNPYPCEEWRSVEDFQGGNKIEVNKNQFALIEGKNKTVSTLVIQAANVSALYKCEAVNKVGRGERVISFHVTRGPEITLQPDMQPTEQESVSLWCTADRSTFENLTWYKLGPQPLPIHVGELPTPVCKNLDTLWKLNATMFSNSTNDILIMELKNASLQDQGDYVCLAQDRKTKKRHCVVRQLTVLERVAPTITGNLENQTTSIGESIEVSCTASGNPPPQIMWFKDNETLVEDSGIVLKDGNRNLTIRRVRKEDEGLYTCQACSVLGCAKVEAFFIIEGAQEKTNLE

The target in the test is vascular endothelial growth factor receptor 2 (UniProt P35968). The test is described as follows: ELISA. In general terms: An ELISA detects its analyte on a solid surface through an enzyme-linked reagent.

These are yes or no findings as the source states them, for the method shown. Some entries that bind do so weakly or less than the wild type.

B1: protein C7-SL1 (designed binder, not shown: small tags and cut ends)
chain: VSDVPRDCEVVAATPTSLLISWRHPHFPTRYYRITYGETGGNSPVQEFTVPLQPPTATISGLKPGVDYTITVYAVTDGRNGRLLSIPICINYRT
modifications: disulfide bond between the two introduced cysteines
On to B1, for which the binding entry is given as “binds”.
